# The entries are a selection whose mix differs from that of the whole data set. At the low end of the ranking the order means little.
# Target: T1, ELK1 (UniProt P19419)
# T1 sequence: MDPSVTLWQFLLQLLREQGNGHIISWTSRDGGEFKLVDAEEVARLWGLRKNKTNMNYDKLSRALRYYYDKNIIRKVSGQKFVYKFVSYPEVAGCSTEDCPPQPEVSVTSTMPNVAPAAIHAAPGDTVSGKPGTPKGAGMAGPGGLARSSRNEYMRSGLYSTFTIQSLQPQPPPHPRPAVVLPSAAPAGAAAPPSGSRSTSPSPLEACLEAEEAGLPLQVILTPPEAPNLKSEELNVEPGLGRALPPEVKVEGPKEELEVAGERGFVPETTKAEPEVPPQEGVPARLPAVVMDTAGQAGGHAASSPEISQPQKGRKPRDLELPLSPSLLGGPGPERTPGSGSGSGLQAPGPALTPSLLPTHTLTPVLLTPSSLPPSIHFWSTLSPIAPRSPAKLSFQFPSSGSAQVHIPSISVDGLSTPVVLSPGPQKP
# Test: DAPPL (digital affinity profiling via proximity ligation, sequencing)
# Settings: 10 mM Tris-HCl pH 7.5, 50 mM NaCl, 1 mM DTT, 4% glycerol, room temperature, 30 min; GST-TFs on glutathione beads, 16-mer random dsDNA library, 0.1% …; high values mean tight binding; double strand, one strand shown; scale: fold enrichment (6-mer frequency, TF over GST control)
row,Sequence,binding signal
1,TGGAAG,0.959
2,TGTTGC,1.32
3,CATCGT,0.917
4,GTAGCG,0.94
5,AAGGGA,0.87
6,CAAGCC,0.922
7,GTGGAA,0.931
8,GACCGA,0.817
9,TAGCGC,0.966
10,CCAAGC,0.962
11,TGGTGA,1.04
12,GCGGCT,0.93
13,GTCCAA,0.944
14,AGGATA,0.989
15,TGGCTG,0.935
16,GGTATC,1.07
17,GTCCGG,0.923
18,TCTCAT,1.36
19,GTGCGC,0.955
20,TCAGTA,0.953

row,Sequence,binding signal
1,AGTACG,0.879
2,TCATAG,0.984
3,CACGGA,0.967
4,TCGCGG,0.972
5,GTAATT,1.1
6,AACAGA,0.976
7,GCGATT,0.901
8,ATAGAC,0.989
9,ACGCCG,1.11
10,GTTGAT,1.12
11,AGCTGT,0.941
12,AGTTTT,0.997
13,GGATAC,0.946
14,TTGGAA,0.959
15,CGCCGG,1.21
16,CGGATT,0.924
17,GTGTCC,1.07
18,GAAACC,0.986
19,ACCGTT,0.923

# Target: T2, ELK3 (UniProt P41970)
# T2 sequence: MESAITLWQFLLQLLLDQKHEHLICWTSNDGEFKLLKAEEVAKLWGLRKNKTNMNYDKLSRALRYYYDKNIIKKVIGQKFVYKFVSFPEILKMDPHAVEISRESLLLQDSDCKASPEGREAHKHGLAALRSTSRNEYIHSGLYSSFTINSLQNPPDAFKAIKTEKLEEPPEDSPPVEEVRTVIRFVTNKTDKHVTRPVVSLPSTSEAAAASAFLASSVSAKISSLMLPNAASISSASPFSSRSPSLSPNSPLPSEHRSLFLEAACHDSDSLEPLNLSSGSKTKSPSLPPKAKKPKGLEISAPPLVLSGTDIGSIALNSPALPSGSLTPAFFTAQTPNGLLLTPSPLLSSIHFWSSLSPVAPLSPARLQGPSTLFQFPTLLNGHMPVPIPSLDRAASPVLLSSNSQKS
# Test: as above
# Settings: 10 mM Tris-HCl pH 7.5, 50 mM NaCl, 1 mM DTT, 4% glycerol, room temperature, 30 min; GST-TFs on glutathione beads, 16-mer random dsDNA library, 0.1% …; high values mean tight binding; double strand, one strand shown; scale: fold enrichment (6-mer frequency, TF over GST control)
row,Sequence,binding signal
1,TGGAAG,0.976
2,TGTTGC,1.4
3,CATCGT,0.926
4,GTAGCG,0.829
5,AAGGGA,0.846
6,CAAGCC,1.06
7,GTGGAA,0.929
8,GACCGA,0.826
9,TAGCGC,0.793
10,CCAAGC,0.969
11,TGGTGA,0.953
12,GCGGCT,0.965
13,GTCCAA,0.916
14,AGGATA,0.882
15,TGGCTG,0.958
16,GGTATC,0.971
17,GTCCGG,0.803
18,TCTCAT,1.29
19,GTGCGC,0.986
20,TCAGTA,0.932

row,Sequence,binding signal
1,AGTACG,0.894
2,TCATAG,0.899
3,CACGGA,0.995
4,TCGCGG,0.985
5,GTAATT,1.29
6,AACAGA,0.981
7,GCGATT,0.898
8,ATAGAC,0.928
9,ACGCCG,1.11
10,GTTGAT,0.982
11,AGCTGT,0.925
12,AGTTTT,1.14
13,GGATAC,0.929
14,TTGGAA,0.99
15,CGCCGG,1.08
16,CGGATT,0.947
17,GTGTCC,1.05
18,GAAACC,0.984
19,ACCGTT,0.988

# Target: T3, SPIC (UniProt Q8N5J4)
# T3 sequence: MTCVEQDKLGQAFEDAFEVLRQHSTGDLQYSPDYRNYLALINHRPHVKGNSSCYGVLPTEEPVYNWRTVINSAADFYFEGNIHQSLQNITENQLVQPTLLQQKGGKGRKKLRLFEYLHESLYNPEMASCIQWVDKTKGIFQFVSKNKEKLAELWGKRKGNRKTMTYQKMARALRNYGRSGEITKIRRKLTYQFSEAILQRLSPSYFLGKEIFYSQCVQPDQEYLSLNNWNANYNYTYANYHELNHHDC
# Test: as above
# Settings: 10 mM Tris-HCl pH 7.5, 50 mM NaCl, 1 mM DTT, 4% glycerol, room temperature, 30 min; GST-TFs on glutathione beads, 16-mer random dsDNA library, 0.1% …; high values mean tight binding; double strand, one strand shown; scale: fold enrichment (6-mer frequency, TF over GST control)
row,Sequence,binding signal
1,TGGAAG,0.985
2,TGTTGC,1.17
3,CATCGT,0.87
4,GTAGCG,0.873
5,AAGGGA,0.828
6,CAAGCC,0.686
7,GTGGAA,1.02
8,GACCGA,0.881
9,TAGCGC,0.846
10,CCAAGC,0.878
11,TGGTGA,1.02
12,GCGGCT,0.977
13,GTCCAA,0.88
14,AGGATA,0.976
15,TGGCTG,0.975
16,GGTATC,0.934
17,GTCCGG,0.865
18,TCTCAT,1.46
19,GTGCGC,0.923
20,TCAGTA,0.973

row,Sequence,binding signal
1,AGTACG,0.913
2,TCATAG,0.816
3,CACGGA,1.06
4,TCGCGG,0.951
5,GTAATT,1.21
6,AACAGA,0.93
7,GCGATT,0.941
8,ATAGAC,0.863
9,ACGCCG,0.876
10,GTTGAT,1.17
11,AGCTGT,1.15
12,AGTTTT,0.916
13,GGATAC,0.971
14,TTGGAA,0.966
15,CGCCGG,0.908
16,CGGATT,0.973
17,GTGTCC,1.2
18,GAAACC,0.973
19,ACCGTT,0.947

# Target: T4, ETS2 (UniProt P15036)
# T4 sequence: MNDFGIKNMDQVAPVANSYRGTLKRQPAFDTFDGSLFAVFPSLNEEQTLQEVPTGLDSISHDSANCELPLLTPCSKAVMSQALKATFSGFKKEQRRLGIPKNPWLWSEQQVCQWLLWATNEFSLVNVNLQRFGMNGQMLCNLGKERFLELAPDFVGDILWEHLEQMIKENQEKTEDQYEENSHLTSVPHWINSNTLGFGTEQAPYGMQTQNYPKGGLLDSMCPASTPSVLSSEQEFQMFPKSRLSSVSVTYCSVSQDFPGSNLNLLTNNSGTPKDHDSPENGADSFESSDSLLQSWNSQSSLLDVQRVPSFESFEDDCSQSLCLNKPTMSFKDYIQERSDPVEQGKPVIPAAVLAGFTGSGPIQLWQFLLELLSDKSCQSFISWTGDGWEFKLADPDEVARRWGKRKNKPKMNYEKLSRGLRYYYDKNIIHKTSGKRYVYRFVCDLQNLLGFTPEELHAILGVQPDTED
# Test: as above
# Settings: 10 mM Tris-HCl pH 7.5, 50 mM NaCl, 1 mM DTT, 4% glycerol, room temperature, 30 min; GST-TFs on glutathione beads, 16-mer random dsDNA library, 0.1% …; high values mean tight binding; double strand, one strand shown; scale: fold enrichment (6-mer frequency, TF over GST control)
row,Sequence,binding signal
1,TGGAAG,1.01
2,TGTTGC,1.3
3,CATCGT,0.898
4,GTAGCG,0.905
5,AAGGGA,0.939
6,CAAGCC,0.905
7,GTGGAA,0.952
8,GACCGA,0.839
9,TAGCGC,0.956
10,CCAAGC,1.03
11,TGGTGA,0.933
12,GCGGCT,0.975
13,GTCCAA,0.998
14,AGGATA,0.974
15,TGGCTG,1.05
16,GGTATC,1.01
17,GTCCGG,0.944
18,TCTCAT,1.26
19,GTGCGC,0.91
20,TCAGTA,0.978

row,Sequence,binding signal
1,AGTACG,0.854
2,TCATAG,0.926
3,CACGGA,0.984
4,TCGCGG,0.952
5,GTAATT,1.28
6,AACAGA,0.951
7,GCGATT,0.959
8,ATAGAC,0.974
9,ACGCCG,1.01
10,GTTGAT,0.897
11,AGCTGT,0.926
12,AGTTTT,0.974
13,GGATAC,0.996
14,TTGGAA,0.931
15,CGCCGG,0.936
16,CGGATT,0.94
17,GTGTCC,1.16
18,GAAACC,0.981
19,ACCGTT,0.996

# Target: T5, ETV3 (UniProt P41162-2)
# T5 sequence: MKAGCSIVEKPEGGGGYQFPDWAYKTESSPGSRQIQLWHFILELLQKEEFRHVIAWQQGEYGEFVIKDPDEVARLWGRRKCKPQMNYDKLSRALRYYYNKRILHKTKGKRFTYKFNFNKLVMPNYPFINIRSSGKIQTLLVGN
# Test: as above
# Settings: 10 mM Tris-HCl pH 7.5, 50 mM NaCl, 1 mM DTT, 4% glycerol, room temperature, 30 min; GST-TFs on glutathione beads, 16-mer random dsDNA library, 0.1% …; high values mean tight binding; double strand, one strand shown; scale: fold enrichment (6-mer frequency, TF over GST control)
row,Sequence,binding signal
1,CATCGT,0.896
2,AAGGGA,0.832
3,GACCGA,0.795
4,TAGCGC,0.908
5,TGGTGA,0.96
6,AGTACG,0.996
7,TCATAG,0.9
8,GCGATT,0.972
9,TTGGAA,0.909
